The list shows a part of the results.
Assays:
Assay in all cases: log2 fold change, soluble protein after heating vs DMSO (PISA); higher = thermal stabilisation; K562 cells, 10 uM, 30 min; active = over 0.2 and 3.5 SD of the protein, either way, in both replicates (recomputed)
bafetinib = compound: Cc1ccc(NC(=O)c2ccc(CN3CC[C@H](N(C)C)C3)c(C(F)(F)F)c2)cc1Nc1nccc(-c2cncnc2)n1 [bafetinib]
Method in brief: (§1)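 Aliquots of K562 cells (2×10^6 cells/mL) treated with 10 μM compound for 30 min were heated for 3 min over 48°C-58°C. After pooling and extraction in PBS with 0.5% NP-40 at 4°C, soluble protein from a 21,000xg, 90 min spin was quantified by TMTpro 16plex LC-MS/MS with channel sums equalised. Thermal stability is expressed against control samples, from duplicates, as a log2 fold change.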

Chains of the proteins cited; added tags and fusions are not shown. Lines headed by an entry give the natural chain unless they say otherwise; changes in a name come on top.
UniProt Q8TAP9: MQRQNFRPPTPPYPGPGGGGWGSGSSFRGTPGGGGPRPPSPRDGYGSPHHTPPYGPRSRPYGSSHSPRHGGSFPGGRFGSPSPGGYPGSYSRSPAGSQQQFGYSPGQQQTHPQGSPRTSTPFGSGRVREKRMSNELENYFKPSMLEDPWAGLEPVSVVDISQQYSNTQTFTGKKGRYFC
UniProt Q9NZB8: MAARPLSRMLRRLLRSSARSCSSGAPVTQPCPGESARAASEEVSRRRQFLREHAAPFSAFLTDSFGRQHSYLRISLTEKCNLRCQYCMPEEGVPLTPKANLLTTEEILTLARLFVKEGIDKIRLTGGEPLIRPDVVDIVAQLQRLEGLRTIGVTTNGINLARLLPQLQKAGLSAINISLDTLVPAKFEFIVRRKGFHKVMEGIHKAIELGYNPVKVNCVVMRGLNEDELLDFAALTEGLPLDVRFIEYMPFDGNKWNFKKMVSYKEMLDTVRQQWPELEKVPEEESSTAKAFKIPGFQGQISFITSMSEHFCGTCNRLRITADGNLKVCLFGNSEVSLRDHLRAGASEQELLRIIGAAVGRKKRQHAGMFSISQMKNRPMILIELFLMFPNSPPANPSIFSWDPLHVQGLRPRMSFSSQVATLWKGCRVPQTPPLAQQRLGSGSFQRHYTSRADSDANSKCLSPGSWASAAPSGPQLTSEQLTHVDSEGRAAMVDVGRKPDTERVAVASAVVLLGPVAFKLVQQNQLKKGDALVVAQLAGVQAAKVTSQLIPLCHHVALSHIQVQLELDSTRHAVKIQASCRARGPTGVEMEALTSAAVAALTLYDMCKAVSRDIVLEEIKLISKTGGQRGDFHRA
UniProt Q6WCQ1: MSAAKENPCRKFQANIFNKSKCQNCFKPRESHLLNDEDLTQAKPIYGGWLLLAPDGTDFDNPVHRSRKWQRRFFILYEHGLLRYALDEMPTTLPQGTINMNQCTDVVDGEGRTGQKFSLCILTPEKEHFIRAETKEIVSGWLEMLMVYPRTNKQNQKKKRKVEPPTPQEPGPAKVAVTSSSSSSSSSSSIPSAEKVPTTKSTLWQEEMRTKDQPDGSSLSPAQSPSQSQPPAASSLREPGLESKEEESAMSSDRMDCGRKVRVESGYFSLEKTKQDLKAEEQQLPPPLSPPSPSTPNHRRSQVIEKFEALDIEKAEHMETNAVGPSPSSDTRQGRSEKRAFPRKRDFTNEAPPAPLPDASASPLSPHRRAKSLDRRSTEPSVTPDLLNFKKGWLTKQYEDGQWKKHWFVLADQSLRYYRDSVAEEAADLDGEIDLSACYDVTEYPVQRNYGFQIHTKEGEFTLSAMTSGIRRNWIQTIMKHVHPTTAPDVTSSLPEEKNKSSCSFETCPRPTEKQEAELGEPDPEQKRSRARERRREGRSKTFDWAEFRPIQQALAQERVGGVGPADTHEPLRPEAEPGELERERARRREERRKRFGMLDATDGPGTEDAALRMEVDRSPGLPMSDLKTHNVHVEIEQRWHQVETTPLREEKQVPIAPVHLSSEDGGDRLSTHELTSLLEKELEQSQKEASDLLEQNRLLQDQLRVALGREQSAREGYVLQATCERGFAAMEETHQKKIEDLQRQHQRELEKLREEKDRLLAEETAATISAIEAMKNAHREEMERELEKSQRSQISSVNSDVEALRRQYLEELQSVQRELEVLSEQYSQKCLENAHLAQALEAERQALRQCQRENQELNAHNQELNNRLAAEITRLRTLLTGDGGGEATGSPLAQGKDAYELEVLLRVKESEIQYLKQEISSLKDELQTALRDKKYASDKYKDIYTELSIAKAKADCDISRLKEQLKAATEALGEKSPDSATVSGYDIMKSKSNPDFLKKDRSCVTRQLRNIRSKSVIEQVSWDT
UniProt P34949: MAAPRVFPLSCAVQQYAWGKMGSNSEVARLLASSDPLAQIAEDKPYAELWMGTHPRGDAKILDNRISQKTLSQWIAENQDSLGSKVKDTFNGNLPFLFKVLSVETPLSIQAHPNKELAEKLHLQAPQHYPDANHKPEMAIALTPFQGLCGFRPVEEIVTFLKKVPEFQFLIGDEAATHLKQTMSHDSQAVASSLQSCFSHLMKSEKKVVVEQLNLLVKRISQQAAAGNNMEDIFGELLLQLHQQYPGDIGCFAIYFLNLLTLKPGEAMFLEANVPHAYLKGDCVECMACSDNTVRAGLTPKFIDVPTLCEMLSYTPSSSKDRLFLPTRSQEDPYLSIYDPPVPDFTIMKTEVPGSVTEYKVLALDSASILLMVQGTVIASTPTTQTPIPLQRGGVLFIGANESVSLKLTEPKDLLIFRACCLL
UniProt Q567V2: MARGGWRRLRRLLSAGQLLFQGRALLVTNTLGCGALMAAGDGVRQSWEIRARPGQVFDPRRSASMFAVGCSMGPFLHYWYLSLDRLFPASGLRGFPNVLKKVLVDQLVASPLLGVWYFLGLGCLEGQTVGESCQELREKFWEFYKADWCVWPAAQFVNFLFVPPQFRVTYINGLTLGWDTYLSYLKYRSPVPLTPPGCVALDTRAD
UniProt Q9NPA3, whole entry, looked up: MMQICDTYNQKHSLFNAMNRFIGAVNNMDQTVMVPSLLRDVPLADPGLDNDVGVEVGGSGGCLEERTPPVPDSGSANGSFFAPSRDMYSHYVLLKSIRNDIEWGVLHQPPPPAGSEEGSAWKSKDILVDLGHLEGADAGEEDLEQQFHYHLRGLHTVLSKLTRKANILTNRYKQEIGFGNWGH
UniProt P29372, whole entry, looked up: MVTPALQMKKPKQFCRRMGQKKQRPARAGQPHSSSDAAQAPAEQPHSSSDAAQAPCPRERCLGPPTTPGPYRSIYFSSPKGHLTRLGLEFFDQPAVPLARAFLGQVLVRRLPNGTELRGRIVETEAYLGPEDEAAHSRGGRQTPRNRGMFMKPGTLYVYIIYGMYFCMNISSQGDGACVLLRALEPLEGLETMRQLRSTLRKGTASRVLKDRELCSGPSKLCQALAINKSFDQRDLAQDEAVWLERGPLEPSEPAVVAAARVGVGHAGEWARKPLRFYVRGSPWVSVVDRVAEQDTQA
UniProt Q8IYU8: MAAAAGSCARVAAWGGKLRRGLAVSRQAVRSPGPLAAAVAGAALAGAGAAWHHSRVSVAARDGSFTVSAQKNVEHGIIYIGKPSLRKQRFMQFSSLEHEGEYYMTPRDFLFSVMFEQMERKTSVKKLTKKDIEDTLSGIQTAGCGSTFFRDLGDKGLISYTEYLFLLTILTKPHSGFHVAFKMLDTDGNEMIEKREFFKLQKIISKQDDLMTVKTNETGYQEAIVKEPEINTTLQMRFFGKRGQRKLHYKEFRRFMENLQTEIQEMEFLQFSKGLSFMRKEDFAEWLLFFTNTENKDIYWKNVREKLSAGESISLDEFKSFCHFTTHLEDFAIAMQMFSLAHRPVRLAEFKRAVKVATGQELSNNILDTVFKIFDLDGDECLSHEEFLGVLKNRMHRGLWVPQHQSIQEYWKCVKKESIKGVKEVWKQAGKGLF

[1] = compound: Cc1cccc(CC(=O)N2CCc3c2ccc(-c2cn(C)c4ncnc(N)c24)c3F)n1
Method in brief: as §1

nilotinib = compound: Cc1cn(-c2cc(NC(=O)c3ccc(C)c(Nc4nccc(-c5cccnc5)n4)c3)cc(C(F)(F)F)c2)cn1 [nilotinib]
Method in brief: as §1

[2] = compound: Cc1nc(Nc2n[nH]c3c2CN(C(=O)N[C@H](CN(C)C)c2ccccc2)C3(C)C)c2sccc2n1
Method in brief: as §1

dasatinib = compound: Cc1nc(Nc2ncc(C(=O)Nc3c(C)cccc3Cl)s2)cc(N2CCN(CCO)CC2)n1 [dasatinib]
Method in brief: as §1

[3] = compound: Cc1ncc(-c2ccnc(Nc3ccc(S(C)(=O)=O)cc3)n2)n1C(C)C
Method in brief: as §1

[4] = compound: Cn1cc(-c2ccc3c(c2)CCN3C(=O)Cc2cccc(C(F)(F)F)c2)c2c(N)ncnc21
Method in brief: as §1

[5] = compound: Cn1cc(-c2ccc3nnc(C(F)(F)c4ccc5ncccc5c4)n3n2)cn1
Method in brief: as §1

tipifarnib = compound: Cn1cncc1[C@@](N)(c1ccc(Cl)cc1)c1ccc2c(c1)c(-c1cccc(Cl)c1)cc(=O)n2C [tipifarnib]
Method in brief: as §1

mubritinib = compound: FC(F)(F)c1ccc(/C=C/c2nc(COc3ccc(CCCCn4ccnn4)cc3)co2)cc1 [mubritinib]
Method in brief: as §1

[6] = compound: NC(=O)Nc1cc(-c2cccc(F)c2)sc1C(=O)N[C@H]1CCCNC1
Method in brief: as §1

[7] = compound: NC(=O)c1cnc(N[C@@H]2CCCC[C@@H]2N)nc1Nc1cccc(-n2nccn2)c1
Method in brief: as §1

[8] = compound: NC1(c2ccc(-c3nc4ccn5c(=O)[nH]nc5c4cc3-c3ccccc3)cc2)CCC1
Method in brief: as §1

[9] = compound: NCC(=O)Nc1ccc(-n2nc(C(F)(F)F)cc2-c2ccc3c(ccc4ccccc43)c2)cc1
Method in brief: as §1

entinostat = compound: Nc1ccccc1NC(=O)c1ccc(CNC(=O)OCc2cccnc2)cc1 [entinostat]
Method in brief: as §1

vorinostat = compound: O=C(CCCCCCC(=O)Nc1ccccc1)NO [vorinostat]
Method in brief: as §1

citarinostat = compound: O=C(CCCCCCNC(=O)c1cnc(N(c2ccccc2)c2ccccc2Cl)nc1)NO [citarinostat]
Method in brief: as §1

silmitasertib = compound: O=C(O)c1ccc2c(c1)nc(Nc1cccc(Cl)c1)c1ccncc12 [silmitasertib]
Method in brief: as §1

[10] = compound: O=C1NC(=O)C(c2cnc3ccccn23)=C1c1cn2c3c(cc(F)cc13)CN(C(=O)N1CCCCC1)CC2
Method in brief: as §1

[11] = compound: c1cc(OCCN2CCCCC2)cc(-c2n[nH]c3ccc(-c4nnc[nH]4)cc23)c1
Method in brief: as §1

Measured: log2 fold change

MPLKIP (UniProt Q8TAP9)
inactive: bafetinib 0.006 | [1] -0.071 | nilotinib -0.312 | [2] 0.021 | dasatinib -0.018 | [3] -0.135 | [4] 0.001 | [5] 0.027 | tipifarnib 0.108 | mubritinib -0.063 | [6] 0.048 | [7] -0.013 | [8] -0.06 | [9] 0.122 | entinostat 0.002 | vorinostat 0.022 | citarinostat -0.002 | silmitasertib 0.141 | [10] 0.207 | [11] -0.073

MRPL38 (UniProt Q96DV4)
inactive: bafetinib 0.168 | [1] 0.026 | nilotinib -0.047 | [2] 0.161 | dasatinib 0.011 | [3] -0.01 | [4] -0.16 | [5] -0.056 | tipifarnib 0.148 | mubritinib 0.055 | [6] 0.002 | [7] 0.043 | [8] 0.004 | [9] 0.136 | entinostat -0.027 | vorinostat 0.068 | citarinostat 0.058 | silmitasertib 0.027 | [10] 0.063 | [11] -0.05

MOCS1 isoform 8 (UniProt Q9NZB8)
inactive: bafetinib 0.016 | [1] -0.017 | nilotinib -0.048 | [2] -0.016 | dasatinib -0.057 | [3] -0.087 | [4] 0.071 | [5] 0.035 | tipifarnib -0.038 | mubritinib -0.024 | [6] 0.015 | [7] 0.017 | [8] -0.021 | [9] -0.039 | entinostat -0.026 | vorinostat -0.072 | citarinostat -0.01 | silmitasertib 0.033 | [10] -0.054 | [11] -0.001

MPRIP isoform 2 (UniProt Q6WCQ1)
inactive: bafetinib -0.05 | [1] -0.072 | nilotinib 0.033 | [2] -0.202 | dasatinib -0.062 | [3] -0.011 | [4] 0.007 | [5] 0.023 | tipifarnib 0.118 | mubritinib 0.036 | [6] -0.119 | [7] -0.015 | [8] 0.025 | [9] -0.088 | entinostat -0.008 | vorinostat 0.035 | silmitasertib 0.089 | [10] -0.081

MPI (UniProt P34949)
inactive: bafetinib -0.087 | [1] 0.055 | nilotinib -0.195 | [2] -0.074 | dasatinib -0.092 | [3] -0.011 | [4] 0.02 | [5] 0.007 | tipifarnib 0.045 | mubritinib 0.018 | [6] -0.018 | [7] 0.056 | [8] -0.014 | [9] -0.043 | entinostat 0.03 | vorinostat 0.059 | citarinostat 0.084 | silmitasertib 0.009 | [10] -0.077 | [11] -0.096

MRPL50 (UniProt Q8N5N7)
inactive: bafetinib -0.079 | [1] -0.035 | nilotinib 0.008 | [2] 0.114 | dasatinib 0.183 | [3] -0.064 | [4] 0.022 | [5] 0.117 | tipifarnib -0.163 | mubritinib -0.039 | [6] 0.024 | [7] 0.154 | [8] 0.035 | [9] 0.074 | entinostat 0.059 | vorinostat -0.102 | citarinostat 0.051 | silmitasertib 0.006 | [10] -0.078 | [11] -0.078

MRPL43 isoform 4 (UniProt Q8N983)
inactive: bafetinib 0.128 | [1] 0.067 | nilotinib -0.114 | [2] 0.108 | dasatinib 0.062 | [3] -0.112 | [4] -0.129 | [5] 0 | tipifarnib 0.17 | mubritinib 0.001 | [6] -0.116 | [7] -0.026 | [8] 0.046 | [9] 0.143 | entinostat 0.035 | vorinostat 0.021 | citarinostat -0.014 | silmitasertib 0.004 | [10] 0.004 | [11] -0.041

MRPL11 (UniProt Q9Y3B7)
inactive: bafetinib 0.247 | [1] 0.047 | nilotinib -0.096 | [2] 0.248 | dasatinib 0 | [3] 0.004 | [4] -0.107 | [5] -0.04 | tipifarnib 0.042 | mubritinib 0.101 | [6] -0.018 | [7] 0.103 | [8] 0.033 | [9] 0.116 | entinostat -0.03 | vorinostat 0.06 | citarinostat 0.049 | silmitasertib -0.036 | [10] -0.02 | [11] -0.058

MPV17L2 (UniProt Q567V2)
inactive: bafetinib 0.03 | [1] -0.068 | nilotinib 0.001 | [2] 0.063 | dasatinib 0.041 | [3] 0.022 | [4] 0.047 | [5] 0.002 | tipifarnib 0.086 | mubritinib -0.044 | [6] 0.007 | [7] 0.069 | [8] 0.078 | [9] -0.009 | entinostat 0.019 | vorinostat -0.027 | citarinostat 0.007 | silmitasertib -0.022 | [10] 0.103 | [11] -0.086

MRPL10 isoform 2 (UniProt Q7Z7H8)
inactive: bafetinib 0.158 | [1] 0.06 | nilotinib -0.021 | [2] 0.141 | dasatinib 0.025 | [3] 0.06 | [4] 0 | [5] 0.012 | tipifarnib 0.053 | mubritinib -0.103 | [6] -0.027 | [7] -0.042 | [8] -0.096 | [9] -0.009 | entinostat -0.021 | vorinostat 0.004 | citarinostat -0.121 | silmitasertib 0.058 | [10] 0.017 | [11] 0.019

MICB, A0A140T979
inactive: bafetinib 0.006 | [1] -0.108 | nilotinib -0.035 | [2] -0.015 | dasatinib -0.034 | [3] -0.022 | [4] -0.001 | [5] -0.08 | tipifarnib 0.099 | mubritinib 0.045 | [7] 0.045 | [8] -0.098 | [9] 0.076 | vorinostat -0.087 | citarinostat -0.002 | silmitasertib 0.021 | [10] 0.013 | [11] -0.059

MRPL24 (UniProt Q96A35)
inactive: bafetinib 0.386 | [1] 0.039 | nilotinib -0.093 | [2] 0.151 | dasatinib -0.039 | [3] 0 | [4] -0.114 | [5] -0.044 | tipifarnib 0.082 | mubritinib 0.069 | [6] -0.04 | [7] 0.038 | [8] 0.022 | [9] 0.188 | entinostat -0.027 | vorinostat 0.064 | citarinostat -0.055 | silmitasertib -0.049 | [10] -0.01 | [11] -0.069

MID1IP1 (UniProt Q9NPA3)
inactive: bafetinib 0.015 | [1] -0.071 | nilotinib -0.019 | [2] -0.056 | dasatinib -0.02 | [3] 0.002 | [5] 0.022 | tipifarnib 0.105 | mubritinib -0.306 | [6] 0.016 | [8] 0.1 | [9] 0.015 | entinostat -0.183 | vorinostat -0.12 | silmitasertib 0.025 | [10] 0.113

MRPL57 (UniProt Q9BQC6)
inactive: bafetinib 0.256 | [1] 0.071 | nilotinib -0.131 | [2] 0.204 | dasatinib 0.082 | [3] -0.031 | tipifarnib 0.138 | mubritinib 0.013 | [6] -0.006 | [7] 0.028 | [8] 0.079 | [9] 0.091 | entinostat 0.004 | vorinostat 0.005 | citarinostat -0.122 | silmitasertib -0.012 | [10] 0.071 | [11] -0.081

MRPL18 (UniProt Q9H0U6)
inactive: bafetinib 0.196 | [1] 0.156 | nilotinib -0.02 | [2] 0.147 | dasatinib -0.058 | [3] -0.042 | [4] -0.174 | [5] 0.042 | tipifarnib 0.163 | mubritinib 0.018 | [6] 0.033 | [8] 0.011 | [9] 0.121 | entinostat 0.021 | vorinostat 0.006 | citarinostat -0.086 | silmitasertib 0 | [10] 0.043 | [11] -0.101

Three successive records already listed, quoted:
MRPL11 (UniProt Q9Y3B7)
inactive: bafetinib 0.247 | [1] 0.047 | nilotinib -0.096 | [2] 0.248 | dasatinib 0 | [3] 0.004 | [4] -0.107 | [5] -0.04 | tipifarnib 0.042 | mubritinib 0.101 | [6] -0.018 | [7] 0.103 | [8] 0.033 | [9] 0.116 | entinostat -0.03 | vorinostat 0.06 | citarinostat 0.049 | silmitasertib -0.036 | [10] -0.02 | [11] -0.058

MPV17L2 (UniProt Q567V2)
inactive: bafetinib 0.03 | [1] -0.068 | nilotinib 0.001 | [2] 0.063 | dasatinib 0.041 | [3] 0.022 | [4] 0.047 | [5] 0.002 | tipifarnib 0.086 | mubritinib -0.044 | [6] 0.007 | [7] 0.069 | [8] 0.078 | [9] -0.009 | entinostat 0.019 | vorinostat -0.027 | citarinostat 0.007 | silmitasertib -0.022 | [10] 0.103 | [11] -0.086

MRPL10 isoform 2 (UniProt Q7Z7H8)
inactive: bafetinib 0.158 | [1] 0.06 | nilotinib -0.021 | [2] 0.141 | dasatinib 0.025 | [3] 0.06 | [4] 0 | [5] 0.012 | tipifarnib 0.053 | mubritinib -0.103 | [6] -0.027 | [7] -0.042 | [8] -0.096 | [9] -0.009 | entinostat -0.021 | vorinostat 0.004 | citarinostat -0.121 | silmitasertib 0.058 | [10] 0.017 | [11] 0.019

Next results

MPG (UniProt P29372)
inactive: bafetinib 0.069 | [1] -0.071 | nilotinib -0.045 | [2] 0.042 | dasatinib 0.015 | [3] 0.022 | [4] 0.03 | [5] -0.014 | tipifarnib 0.008 | mubritinib -0.026 | [6] -0.01 | [7] 0.025 | [8] 0.025 | [9] 0.003 | entinostat -0.034 | vorinostat 0.05 | citarinostat -0.045 | silmitasertib -0.014 | [10] 0.026 | [11] -0.06

MICU2 (UniProt Q8IYU8)
inactive: bafetinib -0.142 | [1] 0.092 | nilotinib -0.052 | [2] -0.067 | dasatinib -0.102 | [3] -0.001 | [4] -0.022 | [5] -0.05 | tipifarnib 0.022 | mubritinib -0.155 | [6] -0.095 | [7] -0.075 | [8] -0.121 | [9] -0.006 | entinostat -0.014 | vorinostat 0.073 | citarinostat 0.042 | silmitasertib 0.076 | [10] 0.04 | [11] -0.141

Reference: the supplement of paper PMC10849652
